The whole screen tested about 320,000 compounds, of which about 2,100 (0.66%) were called active. The inconclusive results got no clear call from the source; some entries with a clear call stand among them for comparison. Calls come from the whole dose curve; as a rule, active = well fitted inhibition curve with a large enough effect in the signal ratio, with a control signal flat (not every such curve was filed as active); inconclusive = small, poorly fitted or top-dose-only effect, or effect the other way, or a change in a side signal; inactive = flat fitted curve, though single readings scatter; the % refers to the signal ratio. Potencies beside an inconclusive call are fits to weak or partial responses and may not hold up.
Experiment: qHTS Assay for Lipid Storage Modulators in Drosophila S3 Cells
Details: BODIPY lipid droplet fluorescence, 18-24 h, cells fed with added oleic acid; lipid storage change, negative = inhibition: at 46.1 µM (top of the series) unless noted
Procedure, shortened: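 Laser-scanning cytometry quantifies lipid droplet accumulation (500–530 nm total intensity; droplet/cell object ratio) in oleic acid-fed (400 uM added) Drosophila S3 cells treated with a concentration series. 20 uM Triacsin C defined 100% inhibition.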
In the case of `Cc1cccc(NC(=O)CSCC(=O)Nc2cccc3ncccc23)c1`, the Potency is reported as inconclusive: 29.1 µM [falling, single point]. With `Cc1ccc(NC(=O)CNC(=O)c2ccc(C)o2)cc1` the lipid storage change, negative = inhibition was inconclusive: 49.8%. For `Cc1ccc(N2CC(C(=O)N3CCC(C(=O)Nc4nncs4)CC3)CC2=O)cc1` (stereo not drawn), the lipid storage change, negative = inhibition was inconclusive: 2.25%. With `COc1ccc(NC(=O)CSc2nnc(C3CC3)n2C)cc1S(=O)(=O)N1CCCCC1` the Potency was inconclusive: 0.731 µM [falling, full curve, poor fit]. With `O=S(=O)(NCCn1ccc2ccccc21)c1ccccc1` the lipid storage change, negative = inhibition was inconclusive: -4.43%. In the case of `N#C/C(=C\c1cccnc1)c1ccc([N+](=O)[O-])cc1`, the Potency is reported as inconclusive: 18.4 µM [falling, single point]. With `COc1cc(/C=N/n2c(C3CCCCC3)n[nH]c2=S)ccc1O` the Potency was inconclusive: 3.26 µM [activator, single point]. In the case of `Cn1ccnc1Sc1ccc(/C=N/NC(=O)c2ccccc2O)cc1[N+](=O)[O-]`, the lipid storage change, negative = inhibition is reported as inconclusive: -40.3%. In the case of `CN(C)CCCN1CC(=O)N2[C@@H](Cc3c([nH]c4ccccc34)C2(C)C)C1=O`, the Potency is reported as inconclusive: 6.51 µM [activator, single point]. In the case of `CSc1c(-c2ccccc2)nc2ccc(Cl)cc2c1C(=O)O`, the lipid storage change, negative = inhibition is reported as inconclusive: -30.6%. In the case of `Cc1cc(C)c2c(c1)/C(=C/C(=O)c1ccc(Br)s1)C(=O)N2`, the lipid storage change, negative = inhibition is reported as inconclusive: 84.2%. With `CN(CCOC(=O)c1ccc2c(c1)OCO2)C(C)(C)C` the lipid storage change, negative = inhibition was inconclusive: -3.75%. With `COc1ccc(C)c2sc(NC(=O)C3CC3)nc12` the lipid storage change, negative = inhibition was inconclusive: 19.4%. For `CC(C)C(NC(=O)c1c(F)cccc1F)C(=O)NCc1ccncc1` (stereo not drawn), the Potency was inconclusive: 6.51 µM [activator, single point]. For `CC1CCCCC1NC(=O)COC(=O)c1ccc(N(C)C)cc1` (stereo not drawn), the Potency was inconclusive: 1.3 µM [activator, partial curve]. With `CCOc1[nH]n(-c2ccc(Cl)cc2)c(=O)c1C=Nc1ccc(Cl)cc1` the lipid storage change, negative = inhibition was inconclusive: -14.6%. With `CC(Sc1nncs1)C(=O)NCc1ccc2c(c1)OCO2` (stereo not drawn) the lipid storage change, negative = inhibition was inconclusive: 34.9%. For `CC(NC(=O)c1ccc(Cl)c(Cl)c1)c1ccc(-c2ccccc2)cc1` (stereo not drawn), the lipid storage change, negative = inhibition was inconclusive: 12.4%. In the case of `CN1C(c2ccc(F)cc2)=CS/C1=C(\C#N)c1nnc2n1-c1ccccc1SC2`, the lipid storage change, negative = inhibition is reported as inconclusive: 22.3%. In the case of `Cc1ccc(-n2nnc3c(=O)n(CC(=O)N4CCOCC4)cnc32)cc1`, the Potency is reported as inconclusive: 0.058 µM [falling, full curve, poor fit]. With `CCCn1c(N)c(C(=O)COC(=O)CCS(=O)(=O)c2ccc(C)cc2)c(=O)[nH]c1=O` the lipid storage change, negative = inhibition was inconclusive: -3.58%. In the case of `CN(CC(O)COc1ccc(S(=O)(=O)N2CCOCC2)cc1)C1CCCCC1` (stereo not drawn), the lipid storage change, negative = inhibition is reported as inconclusive: -25.4%. For `O=C(NCc1ccc(F)cc1)c1cc(S(=O)(=O)N2CCCCC2)ccc1Cl`, the Potency was inconclusive: 25.9 µM [falling, single point]. In the case of `CCCC1(C(=O)OC)NC(c2ccc(OC)cc2OC)C2C(=O)N(c3cccc(C(C)=O)c3)C(=O)C21` (stereo not drawn), the Potency is reported as inconclusive: 29.1 µM [activator, single point]. With `CCCC1=NN2C(=N)/C(=C\c3ccc(SCc4ccco4)o3)C(=O)N=C2S1` the lipid storage change, negative = inhibition was inconclusive: -37.3%. With `COc1ccccc1CNCC(O)(c1ccc(F)cc1)c1ccc(F)cc1` the lipid storage change, negative = inhibition was inconclusive: 65.3%. With `Cc1nc2c(cnn2-c2ccccc2)c(=O)n1/N=C/c1ccccc1` the lipid storage change, negative = inhibition was inconclusive: 19.2%. In the case of `O=C(OCCN1CCOCC1)c1ccc(OCCN2CCOCC2)cc1`, the lipid storage change, negative = inhibition is reported as inconclusive: 1.98%. In the case of `CCOC(=O)C(=NCC1CCCO1)NNc1cc(Cl)ccc1Cl` (stereo not drawn), the lipid storage change, negative = inhibition is reported as inconclusive: -3.92%. With `O=C(CCC(=O)CCN1CCCCC1)CCN1CCCCC1` the Potency was inconclusive: 29.1 µM [falling, single point]. For `O=Cc1ccc(-n2cncn2)cc1`, the Potency was inconclusive: 25.9 µM [falling, single point]. For `Cc1ccc(-n2c(SCC(=O)NCc3ccco3)nc3nc4c(cc3c2=O)COC(C)(C)C4)cc1`, the Potency was inconclusive: 23.1 µM [activator, single point]. In the case of `Cc1cccnc1NC(=O)c1cccc(S(=O)(=O)N2CCN(c3ccc(F)cc3)CC2)c1`, the lipid storage change, negative = inhibition is reported as inconclusive: -48.5%. In the case of `O=C1CN(C(=O)COC(=O)CNC(=O)c2ccc(Br)o2)c2ccccc2N1`, the Potency is reported as inconclusive: 32.6 µM [rising, single point]. For `COC(=O)c1c(C)[nH]c(C(=O)OCC(=O)NCC(C)C)c1C`, the lipid storage change, negative = inhibition was inconclusive: -0.39%. In the case of `COc1cc2c(cc1OC)n(CC(=O)NC1CCCCCC1)n1c(C)cc(=O)nc21`, the Potency is reported as active: 8.2 µM. With `CCNc1nc(C)c(CN(C(C)=O)c2ccccc2)nc1C#N` the lipid storage change, negative = inhibition was inconclusive: 1.07%. With `COc1ccc(NC(=O)Cc2nnc(SCC(=O)Nc3ccc(F)cc3)n2C)cc1` the lipid storage change, negative = inhibition was inconclusive: 91.4%. For `O=C(CCn1cnnn1)N1CCCC(Nc2ccc(F)c(F)c2)C1` (stereo not drawn), the lipid storage change, negative = inhibition was inconclusive: 39.8%. In the case of `Cc1cc(C)c(OCC(=O)OC(C)C(=O)NCc2ccccc2)c(C)c1` (stereo not drawn), the lipid storage change, negative = inhibition is reported as “inconclusive”. For `Cc1ccc(NC(=O)C2C3C=CC4(O3)C2C(=O)N(CCCN2CCCC2)C4C(=O)NC2CCCCC2)cc1Cl` (stereo not drawn), the Potency was inconclusive: 20.6 µM [activator, partial curve, poor fit]. In the case of `CCn1c(SCC(=O)N(C)CCC#N)nc2cc(S(=O)(=O)N3CCOCC3)ccc21`, the lipid storage change, negative = inhibition is reported as “inconclusive”. In the case of `CC(C)(C)OC(=O)CC[C@@H](C(=O)N1CCN(C(=O)OC(C)(C)C)CC1)n1cc(C(CO)NC(=O)OC(C)(C)C)nn1` (stereo partly drawn), the lipid storage change, negative = inhibition is reported as inconclusive: -47.7%. With `O=C(C(=O)N1CCc2ccccc2C1)N1CCc2ccccc2C1` the lipid storage change, negative = inhibition was inconclusive: 5.09%. For `O=C(Cn1c(=O)sc2ccccc21)N1CCOCC1`, the lipid storage change, negative = inhibition was inconclusive: 0.744%. For `CCCCSc1nnc(C)c(=O)[nH]1`, the Potency was inconclusive: 29.1 µM [activator, single point]. For `CCCCn1nc2cc(C(=O)NC3CCc4ccccc43)ccc2c1OCC` (stereo not drawn), the Potency was inconclusive: 1.46 µM [rising, full curve]. For `Cc1ccccc1Nc1nc(N)nc(CN(C)Cc2ccccc2Cl)n1`, the Potency was inconclusive: 2.06 µM [activator, full curve].
% is set by controls: 0 for no effect and ±100 for the full control effect; potency is the fitted concentration of half-maximal effect.
